Test results published in PubChem BioAssay AID651804 (National Center for Advancing Translational Sciences (NCATS), 2012).
The whole screen tested about 1,200 compounds, of which about 20 (2%) were called active. Not shown: some 23% with an inconclusive outcome. The call rests on the fitted dose curve; in most records, active means well fitted inhibition curve with a large enough effect; inconclusive means small, poorly fitted or top-dose-only effect; inactive means no such curve, though single readings can be large or run the other way. This is one part of the list.

Amino acid sequences for entries named in this document (tags omitted). A change or cut given only in a name is not applied to a line headed by its entry.
UniProt P11308: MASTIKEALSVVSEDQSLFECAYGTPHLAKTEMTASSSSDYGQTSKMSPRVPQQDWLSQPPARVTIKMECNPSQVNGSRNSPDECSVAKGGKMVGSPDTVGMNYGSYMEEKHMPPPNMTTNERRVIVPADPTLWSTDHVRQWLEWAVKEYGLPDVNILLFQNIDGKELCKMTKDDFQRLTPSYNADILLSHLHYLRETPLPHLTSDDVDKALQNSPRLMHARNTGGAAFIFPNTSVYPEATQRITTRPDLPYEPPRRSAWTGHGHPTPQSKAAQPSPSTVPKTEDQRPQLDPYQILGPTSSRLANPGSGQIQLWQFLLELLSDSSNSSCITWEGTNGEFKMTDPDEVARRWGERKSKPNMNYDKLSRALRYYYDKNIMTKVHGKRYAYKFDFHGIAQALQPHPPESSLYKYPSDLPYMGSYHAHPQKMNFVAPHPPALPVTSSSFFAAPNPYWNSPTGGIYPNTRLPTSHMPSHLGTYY

Target: Transcriptional regulator ERG (Homo sapiens) (UniProt P11308)
Experiment: qHTS for Small Molecule Inhibitors of the ERG Ets/DNA interaction: HTRF assay against cherry picks
Details: His-ERG Ets domain with biotin-DNA; series mostly up to 154 µM; activity change, negative = inhibition: at the top concentration
How it was run: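 HTRF of His-tagged ERG Ets domain (200 nM solution) with biotin-DNA (200 nM solution) in 300mM KCl, 50mM Tris-HCl pH 7.5, 1mM EDTA, 1mM DTT; 10 min RT. Anti-His cryptate donor plus streptavidin acceptor added, 10 min, FRET read at 615/665 nm.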
Potency means the concentration at half of the fitted maximal effect.

Structure (SMILES) | activity change, negative = inhibition | Potency
Cc1cccc(-n2c(CNC(=O)c3ccc(S(=O)(=O)N4CCCC4)cc3)n[nH]c2=S)c1 | inactive: -7.59% | –
Cc1cc(/C=C(\C#N)C(=O)Nc2ccccc2)c(C)n1-c1ccc(C(=O)O)cc1 | inactive: -62.2% | –
COc1cc(CNc2ccc(O)cc2)cc(Br)c1OCc1ccccc1 | inactive: -2.76% | –
O=C(CCn1cccc1)NCc1ccccc1 | inactive: 2.02% | –
O=C(NCCSc1c[nH]c2ccccc12)c1ccc(Cl)cc1 | inactive: 0.955% | –
CCn1cc(C(=O)N2CCCC(N3CCN(c4cccc(C(F)(F)F)c4)CC3)C2)cn1 (stereo not given) | inactive: -25.5% | –
Nc1ccc(S(=O)(=O)Nc2ncccn2)cc1 | inactive: -20.5% | –
Cc1ccccc1C(=O)Oc1c(Sc2ccccc2)c(C)nn1C(C)(C)C | inactive: -18.4% | –
O=C(CSc1nc2ccccc2o1)N/N=C/c1ccc(C(=O)O)cc1 | inactive: -31.1% | –
CN(C)c1ccc(/C=C(\C#N)c2nc(-c3ccc(Cl)c(Cl)c3)cs2)cc1 | inactive: -19.4% | –
COC(=O)C/C(C)=N/Nc1ccc(S(=O)(=O)N2CCCC2)cc1[N+](=O)[O-] | inactive: -58.8% | –
CCCCN(C(=O)Cc1ccc(S(=O)(=O)N2CCOCC2)s1)c1c(N)n(CCCC)c(=O)[nH]c1=O | inactive: 1.54% | –
Cc1cccc(NC(=O)c2ccccc2NC(=O)c2ccco2)c1 | inactive: -1.8% | –
Cc1nc2nc[nH]n2c(=O)c1NS(=O)(=O)c1ccc(F)cc1 | inactive: -4.19% | –
CCC(C)NCCOc1ccc(C)cc1[N+](=O)[O-] (stereo not given) | inactive: -18.4% | –
Cc1cccc(-c2cnn(-c3cccc([N+](=O)[O-])c3)c2N)c1 | inactive: -76% | –
COc1ccc(CC(=O)Nc2ccc(-c3nnc(-c4ccccc4)o3)cc2)cc1 | inactive: -29.6% | –
COc1ccc(NC(=O)C2C3CCC(O3)C2C(=O)O)c(C)c1 (stereo not given) | inactive: -4.24% | –
CC1CCCC(NC(=O)COC(=O)/C=C/c2ccco2)C1C (stereo not given) | inactive: -18% | –
C=CCn1c(=O)c2ccccc2n2c(SCc3nc(N)nc(Nc4ccccc4C)n3)nnc12 | inactive: -22.2% | –
CC(=O)Nc1ccc(SCC(=O)N(C)C2CCS(=O)(=O)C2)cc1 (stereo not given) | inactive: -6.63% | –
CCSc1nc2c(c(=O)[nH]c(=O)n2C)n1CC(O)COc1ccccc1 (stereo not given) | inactive: 9.5% | –
Cc1ccc(-c2[nH]c(-c3ccc(C(=O)O)cc3)nc2-c2ccccc2)cc1 | inactive: -27.9% | –
Cc1ccc([N+](=O)[O-])c2c1C(N1CC(C)OC(C)C1)C(C)(C)O2 (stereo not given) | inactive: -29.7% | –
C[C@H](CO)N1C[C@H](C)[C@@H](CN(C)CC2CC2)Oc2c(NC(=O)C3CC3)cccc2C1=O | inactive: -4.08% | –
O=C1N/C(=C/c2cccs2)C(=O)N1Cc1ccc(F)cc1 | inactive: -21.1% | –
CCN1CCN(CCCN(Cc2cccs2)C(=S)Nc2ccccc2C)CC1 | inactive: -37.5% | –

Of the compounds above, 4 contain a nitro group on carbon.
Structure (SMILES) | activity change, negative = inhibition | Potency
COC(=O)C/C(C)=N/Nc1ccc(S(=O)(=O)N2CCCC2)cc1[N+](=O)[O-] | inactive: -58.8% | –
CCC(C)NCCOc1ccc(C)cc1[N+](=O)[O-] (stereo not given) | inactive: -18.4% | –
Cc1cccc(-c2cnn(-c3cccc([N+](=O)[O-])c3)c2N)c1 | inactive: -76% | –
Cc1ccc([N+](=O)[O-])c2c1C(N1CC(C)OC(C)C1)C(C)(C)O2 (stereo not given) | inactive: -29.7% | –

By substructure, those above containing a cyano group.
Structure (SMILES) | activity change, negative = inhibition | Potency
Cc1cc(/C=C(\C#N)C(=O)Nc2ccccc2)c(C)n1-c1ccc(C(=O)O)cc1 | inactive: -62.2% | –
CN(C)c1ccc(/C=C(\C#N)c2nc(-c3ccc(Cl)c(Cl)c3)cs2)cc1 | inactive: -19.4% | –

Remaining list, next part.

Structure (SMILES) | activity change, negative = inhibition | Potency
Oc1ccc(NCc2ccccc2OCc2ccccc2Cl)cc1 | inactive: -1.96% | –
COc1ccc(Cl)cc1NC(=O)COC(C)=O | inactive: -20.4% | –
COC(=O)[C@H](Cc1ccccc1)NC(=O)Nc1ccc(OC)cc1 | inactive: -0.796% | –
O=S(=O)(c1ccccc1)c1cnc(-c2cccnc2)nc1-c1ccccc1 | inactive: -15.6% | –
O=c1ccc2cc(S(=O)(=O)Nc3ccccc3F)ccc2o1 | inactive: -11.3% | –
CC1COc2ccccc2N1S(=O)(=O)c1ccc(Cl)cc1 (stereo not given) | inactive: -26.5% | –
O=C(NCC(=O)N(c1cccc(F)c1)C(C(=O)NC1CCCC1)c1cccnc1)c1cccs1 (stereo not given) | inactive: -0.955% | –
COc1cc(C(=O)Cc2nc3ccccc3n2C)cc(OC)c1OC | inactive: -18.5% | –
COc1cc(CNCc2ccncc2)cc(OC)c1OC | inactive: -28.3% | –
O=C1/C(=C/c2cccs2)Sc2ccccc21 | inactive: -26.2% | –
CCOc1ccc(NC(=O)Nc2cccn(Cc3ccccc3)c2=O)cc1 | inactive: -13.9% | –
COC(=O)c1ccc(NC(=O)c2cccc(C)c2[N+](=O)[O-])cc1 | inactive: -10.2% | –
CCC(=O)Nc1c(C)ccc2nsnc12 | inactive: -23.4% | –
Cn1c(SCC(=O)N2CCN(C(=O)c3ccco3)CC2)nnc1-c1ccc(NS(C)(=O)=O)cc1 | inactive: -23% | –
CCN1C(=O)CSc2ccc(C(=O)NC3CCCCC3)cc21 | inactive: 0% | –
O=C1[C@H]2[C@@H](c3ccc(F)cc3)N3C(=O)N(c4cccc(F)c4)C(=O)[C@@]3(Cc3ccccc3)[C@H]2C(=O)N1C1CCCCC1 | inactive: -28.6% | –
CCCCN(C(=S)Nc1cccc(SC)c1)C1CCN(C(C)=O)CC1 | inactive: -9.07% | –
CCN(CC(=O)N1CCCCCC1)S(=O)(=O)c1ccc(Cl)cc1 | inactive: -18.2% | –
COc1ccc(N(CC(=O)NCc2ccco2)S(=O)(=O)c2ccc(C)cc2)cc1 | inactive: -2.92% | –
CCN(CC)CCN1C(=O)C2C(C(=O)Nc3cccc(SC)c3)C3C=CC2(O3)C1C(=O)NC1CCCC(C)C1C (stereo not given) | inactive: -9.76% | –
O=C(NCC1CCCCC1)c1cccc(-c2ccc(O)cc2)c1 | inactive: -23.5% | –
CC(Oc1ccc(C(=O)c2ccc(F)cc2)cc1)C(=O)N1CCOCC1 (stereo not given) | inactive: -25.3% | –
CCc1nnc2c(N3CCN(c4cccc(C(F)(F)F)c4)CC3)nc3ccccc3n12 | inactive: -8.91% | –
O=C(N1CCc2[nH]c3ccccc3c2C1)C(F)(F)F | inactive: -14% | –
CN(C)S(=O)(=O)c1ccc(N2CCCC2)c(C(=O)N2CCC(C(N)=O)CC2)c1 | inactive: -24.4% | –
CN(CC(=O)OCC(=O)NCC(F)(F)F)S(=O)(=O)c1ccc(Cl)cc1 | inactive: 0.849% | –
CCOC(=O)CC1COCCN1Cc1cn[nH]c1-c1cc(OC)c(OC)c(OC)c1 (stereo not given) | inactive: -1.17% | –

Structure (SMILES) | activity change, negative = inhibition | Potency
CS(=O)(=O)Nc1ccc(N2CCN(c3ccc(C(F)(F)F)cn3)CC2)nc1 | inactive: -29.3% | –
CC(C)Cc1ccc(C(C)C(=O)O)cc1 (stereo not given) | inactive: -10.7% | –
CC1CCN(S(=O)(=O)c2ccc(Cl)s2)CC1 | inactive: -23% | –
O=C(C1CC(=O)N(c2ccc(F)cc2)C1)N1CCC(c2nc3ccccc3[nH]2)CC1 (stereo not given) | inactive: -28.4% | –
CCCCNC(=O)CCC(=O)NNc1nc2ccccc2c2nc(C)nn12 | inactive: -38.5% | –
Cc1cc(C(=O)COC(=O)C23CC4CC(CC(O)(C4)C2)C3)c(C)n1C | inactive: -28.2% | –
CCOC(=O)c1oc2ccc(S(=O)(=O)n3nc(-c4ccc(OC)cc4)cc3N)cc2c1C | inactive: -16.7% | –
Cc1ccc(NC(=S)NCc2ccc3c(c2)cc(C)n3C)c(C)c1 | inactive: 82.1% | –
CCn1c(=O)cc(OCC(=O)Nc2ccccc2C#N)c2ccccc21 | inactive: 69.3% | –
NC(=O)C1(N2CCCCC2)CCN(C(=O)CSc2nc3ccccc3s2)CC1 | inactive: -21.5% | –
CSc1nc2c(c(=O)[nH]1)C(c1cccc(Br)c1)CC(=O)N2 (stereo not given) | inactive: -7% | –
COc1ccc(C(=O)N(C)Cc2ccc(C)o2)cc1OC1CCN(C(C)C)CC1 | inactive: -26.2% | –
Cc1cc(NC(=O)CCC(=O)N(CC(=O)NC2CCCC2)c2ccc(C)c(F)c2)no1 | inactive: 6.26% | –
CCOc1ccc2[nH]c3c(NCCO)ncnc3c2c1 | inactive: -19.4% | –
CC(=O)Nc1ccc(NC(=O)C(C)OC(=O)C2CCN(S(=O)(=O)c3ccc4c(c3)OCCO4)CC2)cc1 (stereo not given) | inactive: 3.93% | –
Cc1ccccc1C(=O)N/N=C1/SCC(=O)N1Cc1ccccc1 | inactive: 1.11% | –
Oc1ccc(NCc2ccccc2OCc2ccccc2)cc1 | inactive: -15.4% | –
COc1ccc(-c2n(CC(=O)OC3CC(C)CCC3C(C)C)c3ccccc3[n+]2C)cc1 (stereo not given) | inactive: -5.73% | –
COc1ccc(OC)c(NC(=O)c2cn3c4c(ccc(Cl)c4c2=O)OC(C)C3)c1 (stereo not given) | inactive: 20.2% | –
CCN(C(=O)COC(=O)CSc1ccc(C)cc1C)c1c(N)n(Cc2ccccc2)c(=O)[nH]c1=O | inactive: -40.2% | –
COc1cccc(CN2CCN(S(=O)(=O)c3ccc(NC(C)=O)cc3)CC2)c1OC | inactive: -6.05% | –
O=C1C(=O)c2ccccc2C(O)=C1C1CCC(c2ccc(Cl)cc2)CC1 (stereo not given) | inactive: -24% | –
OC(Cn1cnnc1)c1ccccc1 (stereo not given) | inactive: -24.8% | –
O=C(Nc1ccccc1)Nc1ncc([N+](=O)[O-])s1 | – | active: 39.8 µM
Clc1ccc(-c2cc3ccccc3nc2N2CCOCC2)cc1 | inactive: 12.8% | –
CCCn1c(=O)c(C(=O)NNS(=O)(=O)c2ccc(C)cc2)c(O)c2ccccc21 | inactive: -38.8% | –
O=C(NCCc1ccc(Cl)cc1)C1CCCN1C(=O)Nc1ccccc1 (stereo not given) | inactive: -5.62% | –

Two entries from above, set out differently.
CCOc1ccc2[nH]c3c(NCCO)ncnc3c2c1
  activity change, negative = inhibition: inactive: -19.4%
CC(=O)Nc1ccc(NC(=O)C(C)OC(=O)C2CCN(S(=O)(=O)c3ccc4c(c3)OCCO4)CC2)cc1 (stereo not given)
  activity change, negative = inhibition: inactive: 3.93%

Carrying on.

Structure (SMILES) | activity change, negative = inhibition | Potency
Cc1ccc(CNC(=O)COc2ccc(S(=O)(=O)N3CCCC3)cc2)cc1 | inactive: -19.6% | –
COc1ccc(CCCC(=O)Nc2cc(C)ccc2OC)cc1 | inactive: -22.2% | –
O=C(C1CCN(Cc2ccc(F)cc2)CC1)N1CCN(C/C=C/c2ccccc2)CC1 | inactive: -29.8% | –
CN(C)N=Nc1ccc(S(=O)(=O)NC(Cc2ccccc2)C(=O)O)cc1 (stereo not given) | inactive: -18% | –
Cc1cccc(OCc2ccc(C(=O)N3CCOCC3)o2)c1 | inactive: -31.2% | –
c1ccc(Nc2ncnc3[nH]ncc23)cc1 | inactive: -22% | –
Cc1ccc(C(=O)NCC(=O)NCCCc2ccccc2)s1 | inactive: -29.7% | –
Cc1ccc(NC(=S)NC(=O)c2cncc(Br)c2)cc1Cl | inactive: -29.5% | –
CC(=O)Nc1ccc(CCCCc2ccc(NC(C)=O)cc2)cc1 | inactive: -1.91% | –
CCn1cc(C(=O)NCc2ccc(Cl)cc2)c(=O)c2cc(S(=O)(=O)N3CCOCC3)ccc21 | inactive: -10.3% | –
CCn1c2ccccc2c2cc(NC(=O)COc3cc(C)ccc3C)ccc21 | inactive: -24.8% | –
COc1ccc(-n2c(=O)c3c4c(sc3n(Cc3ccc(C(C)(C)C)cc3)c2=O)CCC4)c(OC)c1 | inactive: -17.8% | –
Cc1noc(C)c1COC(=O)C1CCN(C(=O)c2ccc(Cl)cc2)CC1 | inactive: -18.2% | –
COc1cc(CNc2ccc(CNc3ncn[nH]3)cc2)ccc1OCC(=O)NC(C)(C)C | inactive: -5.57% | –
Cc1ccc(C(=O)N[C@H](C(=O)Nc2ccc(F)cc2)C(C)C)cc1 | inactive: -7.64% | –
Cc1cc(C)nc(N2CCN(c3nnnn3-c3ccccc3)CC2)n1 | inactive: 3.18% | –
O=C(NCC(=O)N1CCCC(C(F)(F)F)C1)c1cccs1 (stereo not given) | inactive: -13.2% | –
C#C[C@]1(O)CC[C@H]2[C@@H]3CCC4=CC(=O)CC[C@@H]4[C@H]3CC[C@@]21CC | inactive: -11% | –
COc1cc(/C=C/C(=O)OC(C)C(=O)c2ccccc2)cc(OC)c1OC (stereo not given) | inactive: 2.23% | –
Nc1c(C(=O)NCc2ccc(Cl)cc2Cl)nnn1Cc1ccc(Br)cc1 | inactive: -9.18% | –
COc1ccc(NC(=O)COC(=O)C2CC(=O)N(c3ccc(C)cc3)C2)cc1 (stereo not given) | inactive: -13.3% | –
O=C(Nc1ccccc1Cl)c1ccc(Cl)cc1Cl | inactive: -5.15% | –
Cc1ccnc(NC(=O)c2cccc(S(=O)(=O)Nc3ccc(C)cc3C)c2)c1 | inactive: -8.7% | –
COc1ccccc1C(C)NC(=O)c1cc(S(=O)(=O)N2CCCCC2)ccc1C (stereo not given) | inactive: 0.53% | –
